These are yes or no findings as the source states them, for the method shown. In cells and extracts the contact can be indirect. Here binding means that the protein was enriched with, or labelled near, the bait; the list need not be complete. Tags and fused reporters may be left off the sequences shown.
T1: 6HIS-HA-JHD2 (S. cerevisiae) (UniProt P47156)
T1 sequence: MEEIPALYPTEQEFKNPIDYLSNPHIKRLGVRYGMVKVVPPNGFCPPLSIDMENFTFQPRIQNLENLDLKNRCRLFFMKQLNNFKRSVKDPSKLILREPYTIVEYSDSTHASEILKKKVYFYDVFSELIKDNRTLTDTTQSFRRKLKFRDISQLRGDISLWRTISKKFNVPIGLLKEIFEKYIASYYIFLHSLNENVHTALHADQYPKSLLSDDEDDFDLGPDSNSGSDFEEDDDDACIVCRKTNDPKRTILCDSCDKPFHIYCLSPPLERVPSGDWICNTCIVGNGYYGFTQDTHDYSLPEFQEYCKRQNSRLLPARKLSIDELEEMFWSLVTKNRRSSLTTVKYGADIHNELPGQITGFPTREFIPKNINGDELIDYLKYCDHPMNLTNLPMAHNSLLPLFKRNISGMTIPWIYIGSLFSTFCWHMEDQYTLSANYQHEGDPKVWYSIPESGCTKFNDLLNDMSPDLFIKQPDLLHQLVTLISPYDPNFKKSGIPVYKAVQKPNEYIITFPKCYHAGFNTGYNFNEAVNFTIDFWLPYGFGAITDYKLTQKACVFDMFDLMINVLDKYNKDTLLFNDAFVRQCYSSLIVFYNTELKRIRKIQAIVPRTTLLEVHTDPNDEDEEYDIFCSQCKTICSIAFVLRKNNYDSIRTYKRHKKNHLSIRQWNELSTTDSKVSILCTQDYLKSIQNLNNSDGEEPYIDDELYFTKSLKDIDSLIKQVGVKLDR

B1: SNL1 (protein, UniProt P40548 1-159)
chain: MSHNAMEHWKSKLSKTSTSTYVLLAVIAVVFLVTIRRPNGSKGKSSKKRASKKNKKGKNQFEKAPVPLTLEEQIDNVSLRYGNELEGRSKDLINRFDVEDEKDIYERNYCNEMLLKLLIELDSIDLINVDESLRRPLKEKRKGVIKEIQAMLKSLDSLK
B2: UIP4 (protein, UniProt Q08926 1-304)
chain: MVTIVFDHPAEDFPELKIAGEFTNWEGVPMKINTSSGKWEYKFDESSVTKHNDKDKVHFKFIDQNGNWFADDEYPKEVDEHSNENNVATLNNEEDGGSAGEEKDEGDKTAHNTNENGSELYYEGPETPTPSLKGNVTFPSPKTAISQDGSAFAKETTRKERKYEHAPLNEVPVERDPKEENKELSPNFSQEQTENKQDKGLDNLSEGNDNDNTRVNEDTDVTDTQESEHEINGSDTENTDMSEQEEIQKIDKPADQNAKSIVKEGDANTEDYESVLKKLLGALGRFFGSWFSWLTTKMSSSEAS
B3: AFT1 (protein, UniProt P22149 1-690)
chain: MEGFNPADIEHASPINSSDSHSSSFVYALPKSASEYVVNHNEGRASASGNPAAVPSPIMTLNLKSTHSLNIDQHVHTSTSPTETIGHIHHVEKLNQNNLIHLDPVPNFEDKSDIKPWLQKIFYPQGIELVIERSDAFKVVFKCKAAKRGRNARRKRKDKPKGQDHEDEKSKINDDELEYASPSNATVTNGPQTSPDQTSSIKPKKKRCVSRFNNCPFRVRATYSLKRKRWSIVVMDNNHSHQLKFNPDSEEYKKFKEKLRKDNDVDAIKKFDELEYRTLANLPIPTATIPCDCGLTNEIQSFNVVLPTNSNVTSSASSSTVSSISLDSSNASKRPCLPSVNNTGSINTNNVRKPKSQCKNKDTLLKRTTMQNFLTTKSRLRKTGTPTSSQHSSTAFSGYIDDPFNLNEILPLPASDFKLNTVTNLNEIDFTNIFTKSPHPHSGSTHPRQVFDQLDDCSSILFSPLTTNTNNEFEGESDDFVHSPYLNSEADFSQILSSAPPVHHDPNETHQENQDIIDRFANSSQEHNEYILQYLTHSDAANHNNIGVPNNNSHSLNTQHNVSDLGNSLLRQEALVGSSSTKIFDELKFVQNGPHGSQHPIDFQHVDHRHLSSNEPQVRSHQYGPQQQPPQQLQYHQNQPHDGHNHEQHQTVQKDMQTHESLEIMGNTLLEEFKDIKMVNGELKYVKPED
B4: CDC14 (protein, UniProt Q00684 1-551)
chain: MRRSVYLDNTIEFLRGRVYLGAYDYTPEDTDELVFFTVEDAIFYNSFHLDFGPMNIGHLYRFAVIFHEILNDPENANKAVVFYSSASTRQRANAACMLCCYMILVQAWTPHQVLQPLAQVDPPFMPFRDAGYSNADFEITIQDVVYGVWRAKEKGLIDLHSFNLESYEKYEHVEFGDFNVLTPDFIAFASPQEDHPKGYLATKSSHLNQPFKSVLNFFANNNVQLVVRLNSHLYNKKHFEDIGIQHLDLIFEDGTCPDLSIVKNFVGAAETIIKRGGKIAVHCKAGLGRTGCLIGAHLIYTYGFTANECIGFLRFIRPGMVVGPQQHWLYLHQNDFREWKYTTRISLKPSEAIGGLYPLISLEEYRLQKKKLKDDKRVAQNNIEGELRDLTMTPPSNGHGALSARNSSQPSTANNGSNSFKSSAVPQTSPGQPRKGQNGSNTIEDINNNRNPTSHANRKVVIESNNSDDESMQDTNGTSNHYPKVSRKKNDISSASSSRMEDNEPSATNINNAADDTILRQLLPKNRRVTSGRRTTSAAGGIRKISGSIKK
B5: CHL1 (protein, UniProt P22516 1-861)
chain: MDKKEYSETFYHPYKPYDIQVQLMETVYRVLSEGKKIAILESPTGTGKTLSLICATMTWLRMNKADIFTRMETNIKTNEDDSENLSDDEPDWVIDTYRKSVLQEKVDLLNDYEKHLNEINTTSCKQLKTMCDLDKEHGRYKSVDPLRKKRKGARHLDVSLEEQDFIPRPYESDSENNDTSKSTRGGRISDKDYKLSELNSQIITLLDKIDGKVSRDPNNGDRFDVTNQNPVKIYYASRTYSQLGQFTSQLRLPSFPSSFRDKVPDEKVKYLPLASKKQLCINPKVMKWKTLEAINDACADLRHSKEGCIFYQNTNEWRHCPDTLALRDMIFSEIQDIEDLVPLGKSLGICPYYASREALPIAEVVTLPYQYLLSESTRSSLQINLENSIVIIDEAHNLIETINSIYSSQISLEDLKNCHKGIVTYFNKFKSRLNPGNRVNLLKLNSLLMTLIQFIVKNFKKIGQEIDPNDMFTGSNIDTLNIHKLLRYIKVSKIAYKIDTYNQALKEEESSKNENPIKETHKKSVSSQPLLFKVSQFLYCLTNLTSEGQFFFEKNYSIKYMLLEPSKPFESILNQAKCVVLAGGTMEPMSEFLSNLLPEVPSEDITTLSCNHVIPKENLQTYITNQPELEFTFEKRMSPSLVNNHLFQFFVDLSKAVPKKGGIVAFFPSYQYLAHVIQCWKQNDRFATLNNVRKIFYEAKDGDDILSGYSDSVAEGRGSLLLAIVGGKLSEGINFQDDLCRAVVMVGLPFPNIFSGELIVKRKHLAAKIMKSGGTEEEASRATKEFMENICMKAVNQSVGRAIRHANDYANIYLLDVRYNRPNFRKKLSRWVQDSINSEHTTHQVISSTRKFFSMRSLNSR
B6: GIP4 (protein, UniProt P39732 1-760)
chain: MVDVQKRKKLLAKAAASASIPAIKGSVPLDSYDIKIIQYKNALYKLNELNRLLNVLVPHLKKKRDNDESYKIIPLVNFILSLCEGPIFNVSPVLAKRYHLLCRFQLIKLSEVQQRLSTNFIDVEGWMFPEEVPLDHYKSCIYNNSLQWKILNSLSCIAQNAIKIYNAKLRQILLERDAYKARSLPFDTSIIEDLLNPVEMTLILDLAVLINDPVRDKSTHSFYKLQWQVMEKLNSCVHSKIFPILRTYYNQLQKFSETRPTSLSNLQKDLPHWEWTLHRIYTFHLRVFSVLCVIISFSRQIFLPNKQHFLDIKTRLSSENVYHYDLIICELMALLSPECDDVTALFELQENLKFWTQTARTDNNSSRTPIFHLQPGLVVELFNNHICKIIPKLRSIMGLLSNWMDCWKYIEKNYKTFDETNDLRENLKEKLERDKALYLEVKNAKSKLKKKPSITKLPASSSPSPSPTSSASPSRQASLESIRTRARAHLASNSSRSPSVSPVRTTFNNKNAETKKSVVSPEKRKLINGRRPRSSSLQSYTNKQQTSYLNSTRHPSIAPPSKLNNQRSNSLQSSTMTLNQKIVQDTVRHLMNKSASTPNPSASSSLAPSPKVSSINNTSSGKSSSTLIANSSDTLAIETLTLDPESNSSELSIKRVRFAGVPPMTEAENPKPTKVGWYKKPAVLHYPPIPASAMIKPLQHKSKYNTLRQEEGFTFRKSLRDGLEWENGESGSETTMMPFGIEIKESTGHRIASKIRSKLR
B7: GLC8 (protein, UniProt P41818 1-229)
chain: MGGILKNPLALSPEQLAQQDPETLEEFRRQVYENTQKNAKLTSHKRNIPGLDNTKEEGEIIGTSSTFLPKDTLSLKHEQDMLAKMTPEERVQWNQRNLAENEITKKQFQDIHIDEPKTPYQGAVDPHGEYYRVDDDEDEDNSDKKPCQVANDDIDDLSLGEPEFEIKENKQPDFETNDENDEDSPEARHKKFEEMRKKHYDVRAIFNKKSREALKDEDEDEDDSTTKEP

Target: T1, 6HIS-HA-JHD2 (S. cerevisiae)
Test: affinity purification with mass spectrometry; whole cell extracts of a wild-type strain with 6HIS-HA-JHD2 induced from the GAL1 promoter for 6 hours; Ni-NTA agarose and anti-HA agarose beads at 4°C for 24 hours; proteins found with the empty vector strain excluded

Binder | binding
B1 | binds
B2 | binds
B3 | binds
B4 | binds
B5 | binds
B6 | binds
B7 | binds

— PMC12204631
